These are yes or no findings as the source states them, for the method shown. In cells and extracts the contact can be indirect. These calls come from enrichment with a bait or labelling near it, and not all partners need be listed.
Each substance was assayed against T1, Twin-Strep McrC (Methanococcus maripaludis (endogenous in M. maripaludis JJ Δupt)) (UniProt Q6LWZ7) (assay: affinity purification with mass spectrometry; Twin-Strep McrC from M. maripaludis lysate on Strep-Tactin Sepharose gravity column, anaerobic, 20 mM HEPES, 150 mM NaCl, pH 7.6, eluted with 2.5 mM desthiobiotin; co-purified subunits seen on SDS gel and confirmed by mass spectrometry of gel bands).
T1 sequence: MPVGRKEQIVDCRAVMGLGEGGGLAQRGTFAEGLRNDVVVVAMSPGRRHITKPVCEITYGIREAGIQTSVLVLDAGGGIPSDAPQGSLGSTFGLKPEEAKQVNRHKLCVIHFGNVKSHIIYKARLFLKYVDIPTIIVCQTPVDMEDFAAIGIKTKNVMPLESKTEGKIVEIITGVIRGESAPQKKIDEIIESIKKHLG

binding, binds:
McrG
methanogenic marker protein Mmp3
methanogenic marker protein Mmp7
methanogenic marker protein Mmp17

Reference: publication PMC12176620, “Structure of the ATP-driven methyl-coenzyme M reductase activation complex” (Nature, 2025)
